Measurements published in US8026208B2 (The Board of Trustees of the Leland Stanford Junior …, priority 2007, dated 2011).
No end group written: not given here.

Assay: peptide made by a vendor
Settings: whole synthesis

In the case of RADSRADC, the “purity (crude or final not stated)” value is reported as “purity>82%”.
